Assay results from patent US20230232833A1, “Synergistic Compositions for the Control of Mosquito-Borne Diseases” (Universite d'Angers, priority 2020, published 2023).
Some of these results come from one statement about several compounds together.

Test system: Anopheles gambiae larvae of resistant strain AcerKis
Assay: Larval sensitivity test (cup test), AcerKis strain
Type: in vivo
Conditions: insecticides tested alone individually, 48 hours, FIG. 12b
Description: Larval Testing Protocol. The larval sensitivity test or cup test, which was used in the present study, assesses the sensitivity of mosquito larvae to insecticides and repellents. The larvae were placed in cups containing 100 mL of osmosis water added with the substance to be tested or with only solvent in the case of the controls (see FIG. 3). Four containers (cups) of 25 larvae were exposed to one modality, for a total of 100 larvae. The mortality rate was observed 24 hours after exposure to the insecticide. The mosquitoes used were late L3/early L4 larvae (last larval stages) of Anopheles gambiae, sensitive Kis reference strain and a resistant strain AcerKis, grown in the MIVEGEC laboratory under standardized conditions.
Methodology of the WHO-certified Test of the Sensitivity of Larvae to Insectivides and Repellents. The sensitivity to insecticides and repellents of the Anopheles gambia mosquito larvae of the sensitive Kis strain and of the resistant AcerKis and KdrKis strains, was determined using the larval sensitivity test (or WHO-certified cup test). The larvae, selected at the L3/L4 stages, were placed in cups containing 100 mL of osmosis water in the presence of the substance to be tested or only the solvent in the case of controls. Four cups of 25 larvae were exposed to one modality, for a total of 100 larvae. […]

Row | SMILES | Mortality of larvae, insecticide tested alone
1 | N#C/N=C1\SCCN1Cc1ccc(Cl)nc1 [Thiacloprid, {(2Z)-3-[(6-Chloropyridin-3-yl)methyl]-1,3-thiazolidin-2-ylidene}cyanamide] | less than 20%
2 | CN1COCN(Cc2cnc(Cl)s2)C1=N[N+](=O)[O-] [Thiamethoxam, 3-[(2-Chloro-1,3-thiazol-5-yl)methyl]-5-methyl-N-nitro-1,3,5-oxadiazinan-4-imine] | less than 20%
